Laboratory results from PMC5928194.
Results are given in words; binding and its absence hold for the method and conditions named. Binding seen in cells or lysates may run through a third protein. Here binding means that the protein was enriched with, or labelled near, the bait; the list need not be complete. Values belong to the molecule of their own block, whether it stands above or below them.

Protein sequences, listed by entry. Tags and fused reporters are not part of them.
UniProt Q9Y530: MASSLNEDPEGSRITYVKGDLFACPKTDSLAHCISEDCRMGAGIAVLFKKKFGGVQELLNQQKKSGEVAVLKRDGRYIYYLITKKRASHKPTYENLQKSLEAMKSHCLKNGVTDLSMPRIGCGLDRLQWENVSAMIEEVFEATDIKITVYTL
UniProt Q7Z2W4: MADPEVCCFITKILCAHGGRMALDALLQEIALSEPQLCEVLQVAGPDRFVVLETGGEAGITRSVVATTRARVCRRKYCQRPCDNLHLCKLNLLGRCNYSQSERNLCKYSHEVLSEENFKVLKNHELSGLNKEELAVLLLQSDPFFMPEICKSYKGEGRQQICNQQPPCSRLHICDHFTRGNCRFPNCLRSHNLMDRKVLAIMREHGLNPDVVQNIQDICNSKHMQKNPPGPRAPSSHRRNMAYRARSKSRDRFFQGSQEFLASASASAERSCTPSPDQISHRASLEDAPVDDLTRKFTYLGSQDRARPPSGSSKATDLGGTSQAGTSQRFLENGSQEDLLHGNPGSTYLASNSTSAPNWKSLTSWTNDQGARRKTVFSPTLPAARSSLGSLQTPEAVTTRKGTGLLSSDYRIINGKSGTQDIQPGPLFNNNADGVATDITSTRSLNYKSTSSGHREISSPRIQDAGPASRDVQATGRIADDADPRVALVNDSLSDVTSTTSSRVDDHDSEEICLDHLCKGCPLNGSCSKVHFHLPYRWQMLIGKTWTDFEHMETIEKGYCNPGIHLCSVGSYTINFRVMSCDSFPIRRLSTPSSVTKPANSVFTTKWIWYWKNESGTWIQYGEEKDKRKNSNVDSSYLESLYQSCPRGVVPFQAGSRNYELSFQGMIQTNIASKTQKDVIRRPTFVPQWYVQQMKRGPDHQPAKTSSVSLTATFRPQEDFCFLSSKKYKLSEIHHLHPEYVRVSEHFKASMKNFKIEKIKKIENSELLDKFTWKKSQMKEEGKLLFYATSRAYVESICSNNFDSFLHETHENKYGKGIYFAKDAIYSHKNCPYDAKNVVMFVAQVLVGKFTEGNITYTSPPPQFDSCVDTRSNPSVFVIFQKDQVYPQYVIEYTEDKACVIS
UniProt P35250: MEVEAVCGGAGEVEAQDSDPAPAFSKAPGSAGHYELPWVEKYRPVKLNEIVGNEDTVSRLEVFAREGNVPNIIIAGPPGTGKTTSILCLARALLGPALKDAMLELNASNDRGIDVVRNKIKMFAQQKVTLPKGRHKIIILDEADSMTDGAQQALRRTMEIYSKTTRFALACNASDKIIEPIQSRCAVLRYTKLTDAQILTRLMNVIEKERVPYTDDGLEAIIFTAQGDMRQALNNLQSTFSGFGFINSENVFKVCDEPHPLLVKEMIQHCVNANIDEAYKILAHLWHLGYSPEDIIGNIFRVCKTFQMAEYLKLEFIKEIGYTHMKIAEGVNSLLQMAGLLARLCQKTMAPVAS
UniProt Q9Y5B9: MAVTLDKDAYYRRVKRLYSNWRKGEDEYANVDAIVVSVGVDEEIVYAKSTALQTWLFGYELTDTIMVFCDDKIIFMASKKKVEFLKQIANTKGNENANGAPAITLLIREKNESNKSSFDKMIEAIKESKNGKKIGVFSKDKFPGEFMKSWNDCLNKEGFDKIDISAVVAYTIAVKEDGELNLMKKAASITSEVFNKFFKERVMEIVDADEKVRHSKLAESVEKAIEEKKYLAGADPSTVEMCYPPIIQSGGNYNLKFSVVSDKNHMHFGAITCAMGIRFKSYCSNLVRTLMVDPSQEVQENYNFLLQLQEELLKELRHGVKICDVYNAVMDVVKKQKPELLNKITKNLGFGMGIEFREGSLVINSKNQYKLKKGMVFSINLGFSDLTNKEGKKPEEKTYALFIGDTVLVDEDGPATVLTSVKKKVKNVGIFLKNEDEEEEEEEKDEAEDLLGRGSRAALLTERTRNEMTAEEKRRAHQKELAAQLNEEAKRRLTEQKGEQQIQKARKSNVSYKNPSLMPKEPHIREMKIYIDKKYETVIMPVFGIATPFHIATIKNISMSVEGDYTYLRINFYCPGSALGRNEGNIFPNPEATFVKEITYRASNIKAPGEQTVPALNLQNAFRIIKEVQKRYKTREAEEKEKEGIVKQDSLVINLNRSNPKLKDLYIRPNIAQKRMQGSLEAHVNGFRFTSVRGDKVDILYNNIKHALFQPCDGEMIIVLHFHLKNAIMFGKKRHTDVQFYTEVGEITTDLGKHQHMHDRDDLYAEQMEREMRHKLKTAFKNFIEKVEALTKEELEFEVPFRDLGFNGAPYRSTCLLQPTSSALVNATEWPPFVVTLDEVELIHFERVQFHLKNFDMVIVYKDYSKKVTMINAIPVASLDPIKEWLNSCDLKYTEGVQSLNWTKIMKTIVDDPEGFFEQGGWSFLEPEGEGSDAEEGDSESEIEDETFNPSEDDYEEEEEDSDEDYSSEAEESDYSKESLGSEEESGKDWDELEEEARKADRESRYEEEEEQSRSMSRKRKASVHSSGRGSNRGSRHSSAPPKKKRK
UniProt P78527: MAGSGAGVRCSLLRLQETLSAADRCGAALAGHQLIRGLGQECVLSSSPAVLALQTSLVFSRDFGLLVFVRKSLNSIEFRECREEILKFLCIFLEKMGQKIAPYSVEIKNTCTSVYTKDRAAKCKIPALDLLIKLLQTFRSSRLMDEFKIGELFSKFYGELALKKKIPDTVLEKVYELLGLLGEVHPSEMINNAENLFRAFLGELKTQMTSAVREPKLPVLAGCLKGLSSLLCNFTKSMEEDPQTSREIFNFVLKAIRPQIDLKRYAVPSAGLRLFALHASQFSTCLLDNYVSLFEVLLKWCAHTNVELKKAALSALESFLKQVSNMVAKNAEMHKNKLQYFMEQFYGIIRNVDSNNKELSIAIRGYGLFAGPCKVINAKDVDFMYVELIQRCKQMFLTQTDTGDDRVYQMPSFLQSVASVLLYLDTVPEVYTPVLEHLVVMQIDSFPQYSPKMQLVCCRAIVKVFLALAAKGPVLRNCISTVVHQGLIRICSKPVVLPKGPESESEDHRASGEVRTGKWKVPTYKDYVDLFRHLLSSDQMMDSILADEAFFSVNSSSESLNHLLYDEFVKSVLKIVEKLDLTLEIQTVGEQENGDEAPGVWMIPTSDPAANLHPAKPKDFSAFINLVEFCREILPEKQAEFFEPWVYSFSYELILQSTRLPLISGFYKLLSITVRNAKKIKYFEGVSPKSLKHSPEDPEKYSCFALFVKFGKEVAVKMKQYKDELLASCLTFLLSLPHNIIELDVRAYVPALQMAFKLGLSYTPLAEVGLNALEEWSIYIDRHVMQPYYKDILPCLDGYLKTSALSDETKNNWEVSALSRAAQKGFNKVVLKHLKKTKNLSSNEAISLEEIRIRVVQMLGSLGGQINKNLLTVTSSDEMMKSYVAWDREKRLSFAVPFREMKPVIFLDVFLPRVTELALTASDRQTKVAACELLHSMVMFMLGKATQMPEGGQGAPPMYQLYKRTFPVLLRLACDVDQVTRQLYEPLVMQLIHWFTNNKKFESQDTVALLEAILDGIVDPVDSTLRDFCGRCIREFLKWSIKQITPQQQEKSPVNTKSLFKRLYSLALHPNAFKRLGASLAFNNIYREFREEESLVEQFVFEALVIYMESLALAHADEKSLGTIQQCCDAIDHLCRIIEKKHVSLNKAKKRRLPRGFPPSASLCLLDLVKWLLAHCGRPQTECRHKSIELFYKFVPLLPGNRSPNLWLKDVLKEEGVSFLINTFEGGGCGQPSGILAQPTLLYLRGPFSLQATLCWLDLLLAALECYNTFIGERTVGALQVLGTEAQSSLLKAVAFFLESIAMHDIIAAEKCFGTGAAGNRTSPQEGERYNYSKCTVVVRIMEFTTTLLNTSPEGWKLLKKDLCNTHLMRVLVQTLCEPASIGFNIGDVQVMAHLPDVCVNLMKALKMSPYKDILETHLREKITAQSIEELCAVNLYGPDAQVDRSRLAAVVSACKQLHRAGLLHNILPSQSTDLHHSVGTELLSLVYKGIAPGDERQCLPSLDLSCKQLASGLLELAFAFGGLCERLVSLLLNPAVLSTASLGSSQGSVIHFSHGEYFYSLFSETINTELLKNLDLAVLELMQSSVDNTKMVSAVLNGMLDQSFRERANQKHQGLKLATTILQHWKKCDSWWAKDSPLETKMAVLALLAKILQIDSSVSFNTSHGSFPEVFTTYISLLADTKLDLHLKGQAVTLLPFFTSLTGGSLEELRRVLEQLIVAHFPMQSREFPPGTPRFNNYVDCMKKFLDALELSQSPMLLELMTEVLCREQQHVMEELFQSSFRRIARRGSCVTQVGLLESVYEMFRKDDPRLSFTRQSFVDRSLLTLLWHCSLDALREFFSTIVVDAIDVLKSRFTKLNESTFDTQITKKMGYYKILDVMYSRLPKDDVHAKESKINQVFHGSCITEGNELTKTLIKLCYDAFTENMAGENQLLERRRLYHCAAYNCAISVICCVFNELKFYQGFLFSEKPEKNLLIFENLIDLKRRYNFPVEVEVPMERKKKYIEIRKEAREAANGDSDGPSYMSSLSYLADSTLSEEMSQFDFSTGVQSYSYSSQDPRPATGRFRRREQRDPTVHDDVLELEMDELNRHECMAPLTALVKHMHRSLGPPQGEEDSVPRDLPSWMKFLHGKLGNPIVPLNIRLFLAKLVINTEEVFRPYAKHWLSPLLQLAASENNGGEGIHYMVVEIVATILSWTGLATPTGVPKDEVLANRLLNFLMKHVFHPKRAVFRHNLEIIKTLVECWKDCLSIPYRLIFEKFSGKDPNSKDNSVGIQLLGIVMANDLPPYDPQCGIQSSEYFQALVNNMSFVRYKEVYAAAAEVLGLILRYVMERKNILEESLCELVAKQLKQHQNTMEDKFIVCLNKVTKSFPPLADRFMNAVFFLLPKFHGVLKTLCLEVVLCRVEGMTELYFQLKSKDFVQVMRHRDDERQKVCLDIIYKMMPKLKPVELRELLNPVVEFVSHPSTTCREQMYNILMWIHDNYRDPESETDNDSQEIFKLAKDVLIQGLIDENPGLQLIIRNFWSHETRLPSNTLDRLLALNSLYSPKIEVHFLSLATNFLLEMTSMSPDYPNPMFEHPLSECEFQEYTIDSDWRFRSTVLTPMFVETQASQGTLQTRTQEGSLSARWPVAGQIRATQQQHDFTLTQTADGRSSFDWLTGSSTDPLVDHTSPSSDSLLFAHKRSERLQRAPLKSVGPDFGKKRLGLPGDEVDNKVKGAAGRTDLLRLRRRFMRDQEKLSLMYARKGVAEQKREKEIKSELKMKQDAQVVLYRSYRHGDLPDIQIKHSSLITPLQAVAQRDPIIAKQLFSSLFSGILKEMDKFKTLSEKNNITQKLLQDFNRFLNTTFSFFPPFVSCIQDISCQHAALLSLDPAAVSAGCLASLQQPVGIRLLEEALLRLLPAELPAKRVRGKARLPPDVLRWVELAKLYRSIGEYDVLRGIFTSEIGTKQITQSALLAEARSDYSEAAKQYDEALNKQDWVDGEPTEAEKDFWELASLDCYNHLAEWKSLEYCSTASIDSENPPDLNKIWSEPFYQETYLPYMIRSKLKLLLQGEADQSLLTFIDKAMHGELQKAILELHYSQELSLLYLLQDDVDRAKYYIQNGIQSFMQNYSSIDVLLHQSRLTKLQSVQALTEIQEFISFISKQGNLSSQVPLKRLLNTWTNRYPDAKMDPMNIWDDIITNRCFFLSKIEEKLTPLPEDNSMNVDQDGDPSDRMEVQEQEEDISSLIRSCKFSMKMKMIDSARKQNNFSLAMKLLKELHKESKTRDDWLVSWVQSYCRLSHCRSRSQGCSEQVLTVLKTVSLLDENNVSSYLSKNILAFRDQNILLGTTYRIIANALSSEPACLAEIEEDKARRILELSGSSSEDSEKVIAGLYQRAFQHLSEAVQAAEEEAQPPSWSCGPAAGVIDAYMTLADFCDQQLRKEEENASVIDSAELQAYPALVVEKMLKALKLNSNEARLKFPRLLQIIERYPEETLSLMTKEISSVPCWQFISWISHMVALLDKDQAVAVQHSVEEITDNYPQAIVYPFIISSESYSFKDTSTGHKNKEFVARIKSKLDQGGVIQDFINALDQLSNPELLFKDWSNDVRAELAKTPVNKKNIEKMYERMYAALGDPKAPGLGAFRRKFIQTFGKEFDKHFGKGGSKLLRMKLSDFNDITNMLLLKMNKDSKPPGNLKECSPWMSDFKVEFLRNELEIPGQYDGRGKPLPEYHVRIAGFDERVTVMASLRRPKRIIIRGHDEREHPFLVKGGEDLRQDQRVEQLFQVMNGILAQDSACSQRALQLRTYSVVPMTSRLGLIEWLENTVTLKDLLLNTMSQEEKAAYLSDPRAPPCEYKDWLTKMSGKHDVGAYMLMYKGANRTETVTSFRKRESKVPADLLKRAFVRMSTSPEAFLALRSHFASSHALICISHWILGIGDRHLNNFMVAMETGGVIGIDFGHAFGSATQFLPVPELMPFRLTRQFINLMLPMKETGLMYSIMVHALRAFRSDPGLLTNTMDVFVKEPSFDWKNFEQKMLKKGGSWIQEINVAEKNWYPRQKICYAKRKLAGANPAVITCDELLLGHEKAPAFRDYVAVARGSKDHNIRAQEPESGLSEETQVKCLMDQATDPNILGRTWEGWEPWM

Experiments:
TAP-tagged TARG1 (human) [1] = biological target: TAP-tagged TARG1 (human) (UniProt Q9Y530); assay: affinity purification with mass spectrometry; tandem affinity purification of TAP-TARG1 as in a1, but with 10 µM olaparib in the lysis buffer (ARTD1/2 inhibited); LC-MS/MS, label-free quantitation over the TAP-tag control
TAP-tagged TARG1 (human) [2] = biological target: TAP-tagged TARG1 (human) (UniProt Q9Y530); assay: affinity purification with mass spectrometry; tandem affinity purification of TAP-TARG1 (IgG Sepharose, TEV cleavage, Calmodulin Sepharose) from HEK293 Flp-In T-REx lysate; lysis buffer 50 mM Tris pH 7.5, 150 mM NaCl, 1% Nonidet P-40, without olaparib (ARTD1/2 activated and PAR formed during lysis); 4 °C; LC-MS/MS, label-free quantitation over the TAP-tag control

- binding (TAP-tagged TARG1 (human) [1]): binds
Molecule: ARTD13 (from UniProt Q7Z2W4 1-902)

- binding (TAP-tagged TARG1 (human) [1]): binds
- binding (TAP-tagged TARG1 (human) [2]): binds
Molecule: RFC2 (replication factor C subunit 2) (from UniProt P35250 1-354)

- binding (TAP-tagged TARG1 (human) [2]): binds
Molecule: XRCC6 (from UniProt P12956 1-609)

- binding (TAP-tagged TARG1 (human) [2]): binds
Molecule: SUPT16H (from UniProt Q9Y5B9 1-1047)

Further lines, the molecule ahead of its results:

Molecule: ARTD1 (from UniProt P09874 1-1014)
- binding (TAP-tagged TARG1 (human) [1]): binds weakly
- binding (TAP-tagged TARG1 (human) [2]): binds

Molecule: PRKDC (from UniProt P78527 1-4128)
- binding (TAP-tagged TARG1 (human) [2]): binds

B1: LIG3 (protein, UniProt P49916 43-1009)
chain: LLHGHPLFLRRKPVLSFQGSHLRSRATYLVFLPGLHVGLCSGPCEMAEQRFCVDYAKRGTAGCKKCKEKIVKGVCRIGKVVPNPFSESGGDMKEWYHIKCMFEKLERARATTKKIEDLTELEGWEELEDNEKEQITQHIADLSSKAAGTPKKKAVVQAKLTTTGQVTSPVKGASFVTSTNPRKFSGFSAKPNNSGEAPSSPTPKRSLSSSKCDPRHKDCLLREFRKLCAMVADNPSYNTKTQIIQDFLRKGSAGDGFHGDVYLTVKLLLPGVIKTVYNLNDKQIVKLFSRIFNCNPDDMARDLEQGDVSETIRVFFEQSKSFPPAAKSLLTIQEVDEFLLRLSKLTKEDEQQQALQDIASRCTANDLKCIIRLIKHDLKMNSGAKHVLDALDPNAYEAFKASRNLQDVVERVLHNAQEVEKEPGQRRALSVQASLMTPVQPMLAEACKSVEYAMKKCPNGMFSEIKYDGERVQVHKNGDHFSYFSRSLKPVLPHKVAHFKDYIPQAFPGGHSMILDSEVLLIDNKTGKPLPFGTLGVHKKAAFQDANVCLFVFDCIYFNDVSLMDRPLCERRKFLHDNMVEIPNRIMFSEMKRVTKALDLADMITRVIQEGLEGLVLKDVKGTYEPGKRHWLKVKKDYLNEGAMADTADLVVLGAFYGQGSKGGMMSIFLMGCYDPGSQKWCTVTKCAGGHDDATLARLQNELDMVKISKDPSKIPSWLKVNKIYYPDFIVPDPKKAAVWEITGAEFSKSEAHTADGISIRFPRCTRIRDDKDWKSATNLPQLKELYQLSKEKADFTVVAGDEGSSTTGGSSEENKGPSGSAVSRKAPSKPSASTKKAEGKLSNSNSKDGNMQTAKPSAMKVGEKLATKSSPVKVGEKRKAADETLCQTKVLLDIFTGVRLYLPPSTPDFSRLRRYFVAFDGDLVQEFDMTSATHVLGSRDKNPAAQQVSPEWIWACIRKRRLVAPC
- binding (TAP-tagged TARG1 (human) [2]): binds
